# Measured values published in the supplement of paper PMC12819154, “High-throughput peptide-centric local stability assay extends protein–ligand identification to membrane proteins, tissues and bacteria” (Nature Structural & Molecular Biology, 2025).
# The other results are listed elsewhere or left out. Most values lie at the level of the controls, where differences are scatter.
# Compound: CN[C@@H]1C[C@H]2O[C@@](C)([C@@H]1OC)n1c3ccccc3c3c4c(c5c6ccccc6n2c5c31)C(=O)NC4 [staurosporine]
# Test: log2 fold change of tryptic peptide abundance, ligand vs vehicle (limited proteolysis) (log2 ratio); higher = more trypsin-susceptible (destabilized)
# Details: ligand concentration: 20 uM; sample: mouse liver crude lysate; replicate design: treated separately
row,Target,log2 fold change
1,"UniProt O35658 (peptide sequence: AFVEFLTDEIKEEK, peptide start residue: 78)",0.141
2,"UniProt O88569 (peptide sequence: GFGFVTFDDHDPVDK, peptide start residue: 154)",0.171
3,"UniProt O55098 (peptide sequence: IKQFSQQEEK, peptide start residue: 839)",-0.534
4,"UniProt O88712 (peptide sequence: VQSVEQIR, peptide start residue: 156)",0.0631
5,"UniProt O55033 (peptide sequence: LWLLDDSK, peptide start residue: 29)",0.117
6,"UniProt O35730 (peptide sequence: SGNKECPTCR, peptide start residue: 82)",-1
7,"UniProt O88520 (peptide sequence: LNSLTLAR, peptide start residue: 333)",-0.462
8,"UniProt O88485 (peptide sequence: SDLKAELERK, peptide start residue: 5)",-0.593
9,"UniProt O70566 (peptide sequence: AKVEENEQK, peptide start residue: 487)",0.268
10,"UniProt O88746 (peptide sequence: AADRLPNLASPSAEGPPRPSPGTAPR, peptide start residue: 453)",-0.0674
11,"UniProt O88665 (peptide sequence: RLANSQCEFER, peptide start residue: 332)",0.668
12,"UniProt O88866 (peptide sequence: RLDEAEAR, peptide start residue: 157)",0.221
13,"UniProt O55126 (peptide sequence: IMIPLKTSPLQ, peptide start residue: 271)",0.256
14,"UniProt O88878 (peptide sequence: TNGMCSVCYKEHLQR, peptide start residue: 26)",0.118
15,"UniProt O70481 (peptide sequence: KPGVSGHGVYELK, peptide start residue: 812)",-0.411
16,"UniProt O35892 (peptide sequence: GVLQDPPR, peptide start residue: 456)",0.133
17,"UniProt O70133 (peptide sequence: LAAQSCALSLVR, peptide start residue: 239)",-0.538
18,"UniProt O55013 (peptide sequence: FVQDTLKGDGVTEIR, peptide start residue: 150)",-0.218
19,"UniProt O55187 (peptide sequence: SGEAAEGEAR, peptide start residue: 281)",0.481
20,"UniProt O35969 (peptide sequence: LQDWALR, peptide start residue: 99)",-0.313

# Given with tabs: part of the list above.
row	Target	log2 fold change
16	UniProt O35892 (peptide sequence: GVLQDPPR, peptide start residue: 456)	0.133
17	UniProt O70133 (peptide sequence: LAAQSCALSLVR, peptide start residue: 239)	-0.538

# (further entries)

row,Target,log2 fold change
1,"UniProt O88597 (peptide sequence: QQLELDDELK, peptide start residue: 237)",0.297
2,"UniProt O88559 (peptide sequence: GQTVNAGVAER, peptide start residue: 208)",-0.259
3,"UniProt O55143 (peptide sequence: VGSTKVPMTPGVK, peptide start residue: 529)",0.233
4,"UniProt O70209 (peptide sequence: MLHDNRDDPAAPR, peptide start residue: 188)",0.264
5,"UniProt O88653 (peptide sequence: KLPSVEGLHAIVVSDRDGVPVIK, peptide start residue: 12)",-0.511
6,"UniProt O35984 (peptide sequence: TAVSVAQGGHSR, peptide start residue: 320)",-0.276
7,"UniProt O88199 (peptide sequence: GRYMLVR, peptide start residue: 357)",0.112
8,"UniProt O55201 (peptide sequence: EEELGEYYMKK, peptide start residue: 132)",-1.01
9,"UniProt O54824 (peptide sequence: FSGLLGQGATVTAK, peptide start residue: 877)",-0.15
10,"UniProt O70167 (peptide sequence: RPLQSIR, peptide start residue: 842)",-0.352
11,"UniProt O54918 (peptide sequence: SPLFIFVR, peptide start residue: 73)",-0.0925
12,"UniProt O88843 (peptide sequence: KTMLLLDILPSRGPK, peptide start residue: 53)",-0.224
13,"UniProt O88428 (peptide sequence: VALLQDPEFYEHR, peptide start residue: 331)",-0.218
14,"UniProt O70161 (peptide sequence: FMSSTVFR, peptide start residue: 438)",0.375
15,"UniProt O88623 (peptide sequence: ASPETLDHLPDEEKGR, peptide start residue: 396)",0.444
16,"UniProt O88874 (peptide sequence: LEATHPPLPPAHPPPDR, peptide start residue: 360)",0.279
17,"UniProt O88396 (peptide sequence: EVQDLTLR, peptide start residue: 71)",0.127
18,"UniProt O88544 (peptide sequence: EALPTWDK, peptide start residue: 365)",-0.29
19,"UniProt O35954 (peptide sequence: ASPEPSALPAQR, peptide start residue: 620)",0.152
